This note sets out measurements from PubChem BioAssay AID1259423 (Fisher Drug Discovery Resource Center, 2018).

Values joined by “and” are separate entries in the source; they are usually repeats but may differ in a detail not shown here. Equal entries are not always repeated. This is one part of the list.

The experiment deals with Aedes aegypti neuropeptide Y-like receptor 7 (NPYLR7). As to the kind of experiment: agonists of mosquito NPYLR7 receptor, primary screen, cell-based, Aedes aegypti, calcium fluorescence, mosquito biting behavior (AID 1259423).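 Further: 0% = vehicle and 100% = reference agonist at the receptor.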 The settings on record: HEK293T NPYLR7/Galpha15, GCaMP6s calcium fluorescence; measured here: Max-Min RFU normalised activation; at 10 µM; stronger effect = higher value.
For the compound `O=P(Nc1ccccn1)(c1ccc(Br)cc1)c1ccc(Br)cc1`, the activation worked out at 3.19%. The result for `CCOC(=O)NC(Sc1nc2ccccc2o1)C(Cl)(Cl)Cl` (stereo not given) reads 5.33%. Next, `CP(=O)(O)OC(c1ccccc1)C(F)(F)C(F)(F)F` (stereo not given): 1.65%; `CCC(C)C(=O)N1CCCC(C(=O)OC2CN3CCC2CC3)C1` (stereo not given): 2.93%. Next, `O=P(Nc1nccs1)(c1ccccc1)c1ccccc1`: 2.59%; `Cc1cc(C)cc(OP(C)(=O)Nc2cc(Cl)ccc2C)c1` (stereo not given): 12.8%.

Consider `O=P1(Nc2nc(-c3ccc(F)cc3)cs2)C=C(c2ccccc2)OC(c2ccccc2)=C1`, for which the activation was determined as 0.99%. Next, `CP(N)(=O)Oc1ccccc1F` (stereo not given): -4.09%; `O=P1(Nc2nncs2)C=C(c2ccccc2)SC(c2ccccc2)=C1`: 38.6%; `CN1CC(=O)N(C)P1(C)=S` (stereo not given): -0.244%. Next, `O=[N+]([O-])C1([N+](=O)[O-])COCOC1`: 24.1%. The result for `Cc1c([N+](=O)[O-])c([N+](=O)[O-])nn1CC(=O)Nc1ccc([N+](=O)[O-])cc1Cl` reads -8.13%. `CN([N+](=O)[O-])C(Br)([N+](=O)[O-])[N+](=O)[O-]`: the activation is -18.8%. Regarding `O=C(c1cccc([N+](=O)[O-])c1)c1ccc([N+](=O)[O-])c([N+](=O)[O-])c1`, the activation is -6.02%. `CN(C)c1ccc2c(c1)N1Cc3ccccc3C1=NP2(=O)c1ccccc1` (stereo not given): the activation is -12.8%.

In the case of `O=C(NC1CCS(=O)(=O)C1)NP(=S)(Oc1ccccc1)Oc1ccccc1` (stereo not given), the activation is -1.54%. The result for `CC1CCC(C(C)C)C(OP(=O)(Nc2nccs2)c2ccccc2)C1` (stereo not given) reads -3.76%; that for `O=C(OC1CN2CCC1CC2)c1ccccc1` (stereo not given), -27.6%; that for `CC[N+](CC)=C1SC2CS(=O)(=O)C(Br)C2(C)S1` (stereo not given), -9.38%. The result for `Cc1ccc(NP(C)(=O)Oc2ccc(Cl)cc2)cc1` (stereo not given) reads -9.67%. The result for `COc1cc(Br)c([N+](=O)[O-])nc1[N+](=O)[O-]` reads -5.52%; that for `Cn1cc([N+](=O)[O-])nc1[N+](=O)[O-]`, -1.87%; that for `CP(=O)(Nc1cccc(F)c1)Oc1ccc(Cl)cc1` (stereo not given), 0.488%. In the case of `COP1(=S)c2c(C)nn(-c3ccccc3)c2N=C(c2ccc(F)cc2)N1C` (stereo not given), the activation was -6.88%.

In the case of `O=P(C=C(Cl)c1ccccc1)(C=C(Cl)c1ccccc1)Nc1nncs1`, the activation is -2.84%. `CP(=O)(Nc1ccc(Cl)cc1Cl)Oc1ccccc1` (stereo not given): the activation stood at 8.25%. Next, `O=C(O[C@H]1CN2CCC1CC2)C1NCc2ccccc2[C@@H]1c1ccccc1` (stereo not given in full): 0.864%; `CC(C)(C)NC1=NCC(CI)S1` (stereo not given): -5.08%; `CCN(CC)C1=NP(=O)(c2ccccc2)NC(c2ccccc2)=C1C#N` (stereo not given): 0.328%. Next, `CCOP(OCC)N1CCOCC1`: -22%; `O=P(O)(O)F`: -9.86% and -6.36%; `CP(=O)(Nc1ccc(F)cc1)Oc1ccc(Cl)cc1` (stereo not given): 7.71%. The result for `Cc1c2non([O-])c-2c(C)[n+](=O)[n+]1[O-]` reads -0.656%. Take `O=C(NC(Sc1ccncn1)C(Cl)(Cl)Cl)c1ccccc1` (stereo not given): the activation is -16.3%. As to `O=P(Nc1nccs1)(c1ccc(Br)cc1)c1ccc(Br)cc1`, the activation was -1.06%. On to `CCOP1(=S)c2c(C)nn(-c3ccccc3)c2N=C(c2ccccc2F)N1C` (stereo not given), for which the activation is -5.56%. For `OCCSCCO`, the activation is -19.8%. The result for `COc1ccc(OP(C)(=O)Nc2ccc(Br)cc2)cc1` (stereo not given) reads 1.23%. Next, `Cc1ccc(NC(=O)COC(=O)C(C)(O)c2cccc(F)c2)c(C)c1` (stereo not given): 3.68%; `COc1cccc(C(OP(C)(=O)O)C(F)(F)F)c1` (stereo not given): 9.78%; `CP(=O)(Oc1ccc(F)cc1)OC(c1ccccc1)C(F)(F)F` (stereo not given): 1.13%.

For `O=C(OC1CN2CCC1CC2)C1COc2ccccc2O1` (stereo not given), the activation was -3.24%. The result for `COP(=O)(NS(=O)(=O)c1ccc(Cl)cc1)OC` reads -4.3%. Next, `CCCCOP1(=S)N=C2c3ccccc3CN2c2cc(N(C)C)ccc21` (stereo not given): -5.33%; `CC(C)(C)c1ccc(OP(C)(=O)O)cc1`: 10.7%. Next, `CCOP1(=S)c2c(C)nn(-c3ccccc3)c2N=C(c2ccccc2)N1C1CC1` (stereo not given): -12%; `CCCCOP(=O)(OCCCC)N(CC)CC`: -17.5%; `CCCCOc1ccc(NP(C)(=O)Oc2ccc(CC)cc2)cc1` (stereo not given): -1.01%. For `N#Cc1ccc(-c2csc(NP3(=O)C=C(c4ccccc4)OC(c4ccccc4)=C3)n2)cc1`, the activation came to 5.61%.

Take `CP(=O)(O)OC(c1ccccc1)C(F)(F)F` (stereo not given): the activation worked out at 13.8%. For `O=C(CBr)c1ccc([N+](=O)[O-])cc1`, the activation came to 1.13%. The result for `Nc1nonc1N=Nc1nonc1N` reads 1.27%; that for `CP(=O)(Nc1ccccc1Br)Oc1ccccc1` (stereo not given), 7.17% and -1.43%; that for `CP(=O)(O)OC(c1cccc(Cl)c1)C(F)(F)F` (stereo not given), -5.25%. The result for `CP(=O)(Oc1ccccc1)OC(c1ccccc1)C(F)(F)F` (stereo not given) reads 10.3%; that for `COC(=O)NC(c1ccccc1)P(=O)(Cl)Cl` (stereo not given), 0.913%; that for `COP1(=S)c2c(C)nn(-c3ccccc3)c2N=C(c2ccccc2)N1C1CC1` (stereo not given), -13.6%. The result for `CN(C)CCS` reads 0.051%. Turning to `O=C1OC2C3CC(CC13)C2SC(CCl)C(F)(F)F` (stereo not given), the activation is 43.3%. Next, `COc1ccc2nc(NP(=O)(c3ccccc3)c3ccccc3)sc2c1`: -7.51%. The result for `O=P(N=c1nc(-c2ccccc2)n(-c2ccccc2)s1)(N1CCOCC1)N1CCOCC1` reads 2.07%; that for `CN(C)C1=C(c2c([N+](=O)[O-])cc([N+](=O)[O-])cc2[N+](=O)[O-])CCCC1`, -17.6%; that for `CCOP(C)(=S)SCN(CC(=O)O)C(=O)OC` (stereo not given), 4.46%.

Regarding `CCCOP(=O)(OCCC)O/C(C)=C/SC#N`, the activation stood at 15%. The result for `Cc1cccc(C)c1OP(C)(N)=O` (stereo not given) reads 12.4%; that for `O=P1(Nc2nc(-c3ccccc3)cs2)C=C(c2ccccc2)OC(c2ccccc2)=C1`, 37.1%; that for `CP(=O)(Nc1ccc(Br)cc1)Oc1ccccc1` (stereo not given), 15.8%.

With `N#CCOC(=O)C(O)(c1ccccc1)c1ccccc1`, the activation is -3.32%. The result for `CC(C)(C)c1ccc(OP(C)(N)=O)cc1` (stereo not given) reads 9.16%. Next, `COP1(=S)N=C2c3ccccc3CN2c2cc(N(C)C)ccc21` (stereo not given): -6.12%; `COc1ccc(OP(C)(=O)Nc2cccc(F)c2)cc1` (stereo not given): -0.655%. Next, `O=C(OC1CN2CCC1CC2)c1cccc2[nH]cnc12` (stereo not given): 5.09%; `CC(C)NC(=O)NP(=O)(Oc1ccccc1)Oc1ccccc1`: -0.591%. `Cc1cc(C)cc(OP(C)(N)=O)c1` (stereo not given): the activation was determined as 10.3%. With `CCN(C1=NCCCS1)P(O)(=S)CC` (stereo not given), the activation is -9.93%. Next, `CP(=O)(O)OC(c1cccc(C(F)(F)F)c1)C(F)(F)F` (stereo not given): -4.18%; `Nc1nonc1OCCOc1nonc1N`: -5.23%.

Consider `CC(C)N(C(=O)C12CC3CC(C1)CC(P(=O)(Cl)Cl)(C3)C2)C(C)C`, for which the activation is 1.47%.

As to `CN1c2ccccc2N2CC(C)(CI)SC12` (stereo not given), the activation was 6.78%. For `O=P(Nc1nccs1)(c1ccccc1)c1nc2ccccc2s1` (stereo not given), the activation amounted to 18.3%.
